Values quoted from earlier work in patent publication US6521661B1, “Cyclic peroxides as novel antifungal agents” (Harbor Branch Oceanographic Institution, Inc., priority 2000, dated 2003).
For at least one compound, name, drawing or mass did not settle the structure.

Settings: cited from earlier work

## CC/C=C/[C@H](CC)C[C@@]1(C)C[C@@H](CC)[C@@H](CC(=O)OC)OO1 [plakortin, Plakortin]
  Activity (bioactivity): essentially bioinactive
